{"sequences": {"note": "The chains behind the UniProt entries cited, without tags or fusion partners.", "UniProt P03165": "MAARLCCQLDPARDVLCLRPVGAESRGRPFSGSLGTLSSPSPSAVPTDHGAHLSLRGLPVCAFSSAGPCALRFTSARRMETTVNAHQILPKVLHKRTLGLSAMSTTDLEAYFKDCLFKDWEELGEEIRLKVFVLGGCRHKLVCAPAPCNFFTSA"}, "source": "paper PMC10831117", "molecules": {"B1": {"name": "HA-tagged RAD51C (protein, UniProt O43502 1-376)", "chain": "MRGKTFRFEMQRDLVSFPLSPAVRVKLVSAGFQTAEELLEVKPSELSKEVGISKAEALETLQIIRRECLTNKPRYAGTSESHKKCTALELLEQEHTQGFIITFCSALDDILGGGVPLMKTTEICGAPGVGKTQLCMQLAVDVQIPECFGGVAGEAVFIDTEGSFMVDRVVDLATACIQHLQLIAEKHKGEEHRKALEDFTLDNILSHIYYFRCRDYTELLAQVYLLPDFLSEHSKVRLVIVDGIAFPFRHDLDDLSLRTRLLNGLAQQMISLANNHRLAVILTNQMTTKIDRNQALLVPALGESWGHAATIRLIFHWDRKQRLATLYKSPSQKECTVLFQIKPQGFRDTVVTSACSLQTEGSLSTRKRSRDPEEEL"}}, "key": {"HA-tagged RAD51C": {"biological_target": "T1, HA-tagged RAD51C (UniProt O43502)", "T1 sequence": "B1 chain", "assay": "co-IP; HEK293T cells co-transfected with Flag-tagged HBV protein plasmids and HA-RAD51C, 48 h; whole-cell lysate (250 mM Tris-HCl pH 7.4, 150 mM NaCl, 1 mM EDTA, 1% Triton X-100, 10% glycerol); antibody overnight at 4 °C, protein G magnetic beads; western blot; forward and reverse pull-down"}, "[1]": {"biological_target": "Flag-tagged HBV X protein (HBX) (hepatitis B virus) (UniProt P03165)", "assay": "co-IP; HEK293T cells co-transfected with Flag-tagged HBV protein plasmids and HA-RAD51C, 48 h; whole-cell lysate (250 mM Tris-HCl pH 7.4, 150 mM NaCl, 1 mM EDTA, 1% Triton X-100, 10% glycerol); antibody overnight at 4 °C, protein G magnetic beads; western blot; forward and reverse pull-down"}}, "note": "Results are given in words; binding and its absence hold for the method and conditions named. In cells and extracts the contact can be indirect. Some entries that bind do so weakly or less than the wild type. Tags and fused reporters may be left off the sequences shown."}
{"molecule": "Flag-tagged HBV X protein (HBX) (from UniProt P03165 1-154)", "values": [{"measurement": "binding", "setting": "HA-tagged RAD51C", "result": "binds"}]}
{"molecule": "B1", "values": [{"measurement": "binding", "setting": "[1]", "result": "binds"}]}
